Some of the results follow.
Experiments:
Test in all cases: log2 fold change, soluble protein after heating vs DMSO (PISA); higher = thermal stabilisation; K562 lysate, 10 uM; active = over 0.2 and 3.5 SD of the protein, either way, in both replicates (recomputed)
nilotinib = compound: Cc1cn(-c2cc(NC(=O)c3ccc(C)c(Nc4nccc(-c5cccnc5)n4)c3)cc(C(F)(F)F)c2)cn1 [nilotinib]
Outline: (§1)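 Log-two fold change in thermal stability relative to solvent controls is reported from duplicates. For each sample, crude K562 extract from dounce-homogenised pellets in PBS pH 7.4 with 1 mM MgCl2, at 1 mg/mL protein, was treated with 10 μM compound for 30 min. Aliquots heated for 3 min across 48°C-58°C were pooled, brought to 0.5% NP-40 at 4°C and cleared at 21,000xg for 90 min. The supernatant was quantified by TMTpro 16plex LC-MS/MS with channel sums equalised.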

Amino acid sequences for entries named in this document (tags omitted). A change or cut given only in a name is not applied to a line headed by its entry.
UniProt P22234: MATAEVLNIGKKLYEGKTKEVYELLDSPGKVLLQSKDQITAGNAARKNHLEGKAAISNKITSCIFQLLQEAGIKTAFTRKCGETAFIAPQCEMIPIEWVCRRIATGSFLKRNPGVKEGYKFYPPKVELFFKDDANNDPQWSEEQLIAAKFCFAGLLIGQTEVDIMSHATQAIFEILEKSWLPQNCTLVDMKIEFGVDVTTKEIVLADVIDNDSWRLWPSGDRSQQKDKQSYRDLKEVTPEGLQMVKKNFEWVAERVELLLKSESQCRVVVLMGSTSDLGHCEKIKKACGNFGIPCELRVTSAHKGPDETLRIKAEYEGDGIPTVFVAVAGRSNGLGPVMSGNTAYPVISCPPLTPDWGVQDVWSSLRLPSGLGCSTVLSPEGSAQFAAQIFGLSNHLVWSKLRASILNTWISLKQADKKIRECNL
UniProt P11940, whole entry, looked up: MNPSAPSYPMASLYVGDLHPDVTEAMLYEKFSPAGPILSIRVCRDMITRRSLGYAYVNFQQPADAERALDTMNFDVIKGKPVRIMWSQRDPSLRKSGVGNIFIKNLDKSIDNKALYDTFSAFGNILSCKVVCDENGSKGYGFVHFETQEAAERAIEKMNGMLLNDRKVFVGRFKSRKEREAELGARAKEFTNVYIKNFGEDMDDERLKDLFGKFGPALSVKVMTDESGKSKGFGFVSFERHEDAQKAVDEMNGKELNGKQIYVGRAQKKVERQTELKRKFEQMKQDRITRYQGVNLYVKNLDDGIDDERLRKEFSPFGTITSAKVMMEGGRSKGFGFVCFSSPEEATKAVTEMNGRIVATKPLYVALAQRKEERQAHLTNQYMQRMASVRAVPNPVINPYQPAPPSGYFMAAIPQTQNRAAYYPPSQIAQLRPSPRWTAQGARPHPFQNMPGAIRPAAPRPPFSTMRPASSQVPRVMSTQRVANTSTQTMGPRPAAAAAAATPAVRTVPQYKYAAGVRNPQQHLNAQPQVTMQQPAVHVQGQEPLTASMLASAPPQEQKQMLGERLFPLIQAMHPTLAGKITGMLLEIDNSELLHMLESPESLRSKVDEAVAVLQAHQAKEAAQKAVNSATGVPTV
UniProt Q99567: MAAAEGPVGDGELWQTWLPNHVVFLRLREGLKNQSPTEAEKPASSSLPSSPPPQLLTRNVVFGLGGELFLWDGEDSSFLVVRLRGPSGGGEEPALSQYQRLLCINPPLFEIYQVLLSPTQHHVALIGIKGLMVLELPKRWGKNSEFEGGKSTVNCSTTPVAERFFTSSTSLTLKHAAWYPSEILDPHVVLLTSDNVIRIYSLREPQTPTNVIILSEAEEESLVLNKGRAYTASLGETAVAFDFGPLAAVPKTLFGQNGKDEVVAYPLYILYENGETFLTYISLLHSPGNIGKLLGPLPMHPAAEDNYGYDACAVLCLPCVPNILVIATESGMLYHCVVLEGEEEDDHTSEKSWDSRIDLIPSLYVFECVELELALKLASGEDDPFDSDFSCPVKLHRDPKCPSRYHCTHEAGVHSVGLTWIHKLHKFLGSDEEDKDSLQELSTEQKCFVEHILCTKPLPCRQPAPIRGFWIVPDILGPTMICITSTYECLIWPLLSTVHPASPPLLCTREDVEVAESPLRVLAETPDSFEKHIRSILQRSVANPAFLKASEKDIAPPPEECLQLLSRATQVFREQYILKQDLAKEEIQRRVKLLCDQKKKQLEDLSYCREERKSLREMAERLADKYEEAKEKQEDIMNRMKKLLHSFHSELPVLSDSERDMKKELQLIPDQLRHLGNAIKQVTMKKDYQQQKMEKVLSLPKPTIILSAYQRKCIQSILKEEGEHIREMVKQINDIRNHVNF
UniProt Q5SRE5: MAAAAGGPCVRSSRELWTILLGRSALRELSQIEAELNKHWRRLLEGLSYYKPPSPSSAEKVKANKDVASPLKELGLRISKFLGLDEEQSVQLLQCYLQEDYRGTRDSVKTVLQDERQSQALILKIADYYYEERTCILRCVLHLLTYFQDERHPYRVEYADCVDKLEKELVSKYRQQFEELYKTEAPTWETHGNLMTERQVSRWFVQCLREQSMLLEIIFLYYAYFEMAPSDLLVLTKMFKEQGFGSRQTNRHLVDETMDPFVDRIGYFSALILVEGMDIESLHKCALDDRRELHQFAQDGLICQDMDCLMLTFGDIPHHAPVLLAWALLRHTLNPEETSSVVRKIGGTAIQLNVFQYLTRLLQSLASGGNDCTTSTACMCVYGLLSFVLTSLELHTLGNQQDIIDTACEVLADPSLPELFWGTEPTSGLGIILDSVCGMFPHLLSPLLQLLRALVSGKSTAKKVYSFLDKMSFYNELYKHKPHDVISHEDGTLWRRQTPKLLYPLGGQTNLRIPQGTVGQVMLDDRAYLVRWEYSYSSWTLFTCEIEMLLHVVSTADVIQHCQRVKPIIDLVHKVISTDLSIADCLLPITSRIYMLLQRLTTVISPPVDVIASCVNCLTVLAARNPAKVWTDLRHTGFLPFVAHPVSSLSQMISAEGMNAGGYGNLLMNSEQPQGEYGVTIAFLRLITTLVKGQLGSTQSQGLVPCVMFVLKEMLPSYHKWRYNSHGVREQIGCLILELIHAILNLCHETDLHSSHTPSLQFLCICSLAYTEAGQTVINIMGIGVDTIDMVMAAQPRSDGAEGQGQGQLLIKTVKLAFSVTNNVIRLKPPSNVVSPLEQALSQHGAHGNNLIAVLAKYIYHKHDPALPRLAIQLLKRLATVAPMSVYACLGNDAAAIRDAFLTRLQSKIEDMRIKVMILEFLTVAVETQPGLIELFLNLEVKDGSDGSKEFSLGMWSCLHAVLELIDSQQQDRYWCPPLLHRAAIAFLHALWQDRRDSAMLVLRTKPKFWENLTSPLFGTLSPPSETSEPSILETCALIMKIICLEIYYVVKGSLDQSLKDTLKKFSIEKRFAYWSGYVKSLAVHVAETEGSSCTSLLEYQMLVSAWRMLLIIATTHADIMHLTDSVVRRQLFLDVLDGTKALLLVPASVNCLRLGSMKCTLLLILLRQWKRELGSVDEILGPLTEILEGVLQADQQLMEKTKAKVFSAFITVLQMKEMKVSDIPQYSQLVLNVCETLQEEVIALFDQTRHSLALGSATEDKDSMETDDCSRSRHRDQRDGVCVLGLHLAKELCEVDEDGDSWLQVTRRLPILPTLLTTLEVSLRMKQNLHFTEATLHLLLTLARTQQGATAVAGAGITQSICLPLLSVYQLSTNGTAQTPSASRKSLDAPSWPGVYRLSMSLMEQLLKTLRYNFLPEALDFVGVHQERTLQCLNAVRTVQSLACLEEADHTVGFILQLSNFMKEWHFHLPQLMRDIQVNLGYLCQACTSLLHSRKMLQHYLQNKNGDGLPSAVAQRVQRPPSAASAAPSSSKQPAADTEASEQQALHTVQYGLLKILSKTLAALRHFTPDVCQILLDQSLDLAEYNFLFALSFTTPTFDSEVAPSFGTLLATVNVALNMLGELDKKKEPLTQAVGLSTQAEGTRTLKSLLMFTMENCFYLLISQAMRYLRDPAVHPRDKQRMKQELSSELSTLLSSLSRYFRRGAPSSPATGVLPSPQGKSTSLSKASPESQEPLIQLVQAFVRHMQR
UniProt Q9NZT2: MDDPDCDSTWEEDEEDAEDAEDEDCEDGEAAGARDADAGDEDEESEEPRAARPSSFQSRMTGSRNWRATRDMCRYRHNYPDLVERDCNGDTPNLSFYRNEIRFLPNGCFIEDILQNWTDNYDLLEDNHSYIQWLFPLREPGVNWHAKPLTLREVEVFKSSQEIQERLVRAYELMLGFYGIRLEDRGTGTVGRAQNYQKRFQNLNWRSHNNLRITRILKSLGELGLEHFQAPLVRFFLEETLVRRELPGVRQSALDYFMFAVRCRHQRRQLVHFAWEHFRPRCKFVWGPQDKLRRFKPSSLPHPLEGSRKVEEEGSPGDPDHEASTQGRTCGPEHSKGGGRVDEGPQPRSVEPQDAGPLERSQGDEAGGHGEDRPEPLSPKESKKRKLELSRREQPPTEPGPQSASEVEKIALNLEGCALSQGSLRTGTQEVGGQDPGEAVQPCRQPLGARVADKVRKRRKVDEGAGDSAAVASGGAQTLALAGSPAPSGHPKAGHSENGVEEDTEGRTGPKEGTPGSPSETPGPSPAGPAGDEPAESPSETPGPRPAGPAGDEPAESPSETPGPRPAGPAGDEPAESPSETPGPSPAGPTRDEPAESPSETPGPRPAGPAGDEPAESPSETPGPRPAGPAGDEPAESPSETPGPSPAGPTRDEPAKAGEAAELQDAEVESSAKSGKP
UniProt Q8N573: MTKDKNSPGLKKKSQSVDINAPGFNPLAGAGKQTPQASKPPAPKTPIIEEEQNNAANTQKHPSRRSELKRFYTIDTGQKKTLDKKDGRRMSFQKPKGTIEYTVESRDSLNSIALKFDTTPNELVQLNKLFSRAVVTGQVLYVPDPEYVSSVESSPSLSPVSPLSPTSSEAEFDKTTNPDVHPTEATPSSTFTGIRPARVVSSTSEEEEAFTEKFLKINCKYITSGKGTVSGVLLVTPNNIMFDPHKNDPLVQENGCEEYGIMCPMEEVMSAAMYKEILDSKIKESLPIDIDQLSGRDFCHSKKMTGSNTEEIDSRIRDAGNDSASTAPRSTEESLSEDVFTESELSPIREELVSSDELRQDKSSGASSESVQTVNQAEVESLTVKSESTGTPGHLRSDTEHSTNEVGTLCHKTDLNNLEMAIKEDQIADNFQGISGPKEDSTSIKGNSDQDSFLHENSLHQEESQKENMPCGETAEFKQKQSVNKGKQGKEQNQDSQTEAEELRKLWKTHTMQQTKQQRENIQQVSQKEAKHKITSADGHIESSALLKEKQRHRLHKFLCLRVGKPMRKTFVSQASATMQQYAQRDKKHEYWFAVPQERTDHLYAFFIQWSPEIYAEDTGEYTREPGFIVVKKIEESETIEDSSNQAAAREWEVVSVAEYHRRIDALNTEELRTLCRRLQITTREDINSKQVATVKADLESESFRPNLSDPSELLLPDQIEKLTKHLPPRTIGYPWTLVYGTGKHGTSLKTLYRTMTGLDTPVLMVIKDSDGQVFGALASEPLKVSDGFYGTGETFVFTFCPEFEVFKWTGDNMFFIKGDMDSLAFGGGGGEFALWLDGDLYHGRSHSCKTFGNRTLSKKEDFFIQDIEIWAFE
UniProt Q9BZF3: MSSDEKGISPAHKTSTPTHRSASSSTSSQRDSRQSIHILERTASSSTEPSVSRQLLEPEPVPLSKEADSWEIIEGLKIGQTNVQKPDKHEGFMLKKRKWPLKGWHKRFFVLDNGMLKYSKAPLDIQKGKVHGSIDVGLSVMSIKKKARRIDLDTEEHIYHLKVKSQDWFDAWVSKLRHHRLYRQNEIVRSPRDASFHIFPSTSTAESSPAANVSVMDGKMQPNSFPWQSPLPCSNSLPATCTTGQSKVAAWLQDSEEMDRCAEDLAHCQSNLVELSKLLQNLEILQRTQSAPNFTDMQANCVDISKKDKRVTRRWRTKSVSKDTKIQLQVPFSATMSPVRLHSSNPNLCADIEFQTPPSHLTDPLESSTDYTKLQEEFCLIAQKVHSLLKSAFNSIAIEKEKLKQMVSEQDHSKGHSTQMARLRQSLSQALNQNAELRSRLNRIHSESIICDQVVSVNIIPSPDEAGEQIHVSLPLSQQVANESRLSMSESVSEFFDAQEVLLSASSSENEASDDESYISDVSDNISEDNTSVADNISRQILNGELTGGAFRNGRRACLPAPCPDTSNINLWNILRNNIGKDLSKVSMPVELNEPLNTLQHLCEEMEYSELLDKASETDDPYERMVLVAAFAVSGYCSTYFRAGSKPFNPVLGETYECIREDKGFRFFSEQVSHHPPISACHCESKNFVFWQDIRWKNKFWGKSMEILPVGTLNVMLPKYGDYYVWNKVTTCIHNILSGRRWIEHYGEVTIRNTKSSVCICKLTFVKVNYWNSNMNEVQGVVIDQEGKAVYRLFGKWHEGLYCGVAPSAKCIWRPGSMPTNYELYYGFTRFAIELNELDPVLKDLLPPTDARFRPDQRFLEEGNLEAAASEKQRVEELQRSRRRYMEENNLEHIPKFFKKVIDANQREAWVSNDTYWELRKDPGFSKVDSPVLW
UniProt Q9BPZ3: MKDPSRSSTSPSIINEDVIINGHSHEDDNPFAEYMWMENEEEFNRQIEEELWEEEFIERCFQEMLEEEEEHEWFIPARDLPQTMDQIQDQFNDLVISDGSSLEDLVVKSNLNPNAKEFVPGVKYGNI
UniProt Q96FW1, whole entry, looked up: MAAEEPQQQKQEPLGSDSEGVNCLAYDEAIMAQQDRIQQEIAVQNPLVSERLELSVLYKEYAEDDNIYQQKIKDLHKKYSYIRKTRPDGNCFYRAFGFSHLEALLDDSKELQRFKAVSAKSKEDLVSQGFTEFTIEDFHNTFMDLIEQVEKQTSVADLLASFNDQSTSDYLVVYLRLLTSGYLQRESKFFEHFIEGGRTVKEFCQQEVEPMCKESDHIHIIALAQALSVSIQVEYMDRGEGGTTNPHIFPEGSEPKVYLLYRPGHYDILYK

[1] = compound: Cc1nc(Nc2n[nH]c3c2CN(C(=O)N[C@H](CN(C)C)c2ccccc2)C3(C)C)c2sccc2n1
Outline: as §1

dasatinib = compound: Cc1nc(Nc2ncc(C(=O)Nc3c(C)cccc3Cl)s2)cc(N2CCN(CCO)CC2)n1 [dasatinib]
Outline: as §1

[2] = compound: Cc1ncc(-c2ccnc(Nc3ccc(S(C)(=O)=O)cc3)n2)n1C(C)C
Outline: as §1

[3] = compound: Cn1cc(-c2ccc3c(c2)CCN3C(=O)Cc2cccc(C(F)(F)F)c2)c2c(N)ncnc21
Outline: as §1

quisinostat = compound: Cn1cc(CNCC2CCN(c3ncc(C(=O)NO)cn3)CC2)c2ccccc21 [quisinostat]
Outline: as §1

tipifarnib = compound: Cn1cncc1[C@@](N)(c1ccc(Cl)cc1)c1ccc2c(c1)c(-c1cccc(Cl)c1)cc(=O)n2C [tipifarnib]
Outline: as §1

[4] = compound: NC(=O)Nc1cc(-c2cccc(F)c2)sc1C(=O)N[C@H]1CCCNC1
Outline: as §1

[5] = compound: NC(=O)c1cnc(N[C@@H]2CCCC[C@@H]2N)nc1Nc1cccc(-n2nccn2)c1
Outline: as §1

[6] = compound: NC1(c2ccc(-c3nc4ccn5c(=O)[nH]nc5c4cc3-c3ccccc3)cc2)CCC1
Outline: as §1

[7] = compound: NCC(=O)Nc1ccc(-n2nc(C(F)(F)F)cc2-c2ccc3c(ccc4ccccc43)c2)cc1
Outline: as §1

vorinostat = compound: O=C(CCCCCCC(=O)Nc1ccccc1)NO [vorinostat]
Outline: as §1

silmitasertib = compound: O=C(O)c1ccc2c(c1)nc(Nc1cccc(Cl)c1)c1ccncc12 [silmitasertib]
Outline: as §1

[8] = compound: O=C1NC(=O)C(c2cnc3ccccn23)=C1c1cn2c3c(cc(F)cc13)CN(C(=O)N1CCCCC1)CC2
Outline: as §1

entospletinib = compound: c1cn2cc(-c3ccc4cn[nH]c4c3)nc(Nc3ccc(N4CCOCC4)cc3)c2n1 [entospletinib]
Outline: as §1

Target	log2 fold change (nilotinib)	log2 fold change [1]	log2 fold change (dasatinib)	log2 fold change [2]	log2 fold change [3]	log2 fold change (quisinostat)	log2 fold change (tipifarnib)	log2 fold change [4]	log2 fold change [5]	log2 fold change [6]	log2 fold change [7]	log2 fold change (vorinostat)	log2 fold change (silmitasertib)	log2 fold change [8]	log2 fold change (entospletinib)
PAICS (UniProt P22234)	inactive: -0.006	inactive: -0.006	inactive: 0.05	inactive: -0.008	inactive: -0.05	inactive: 0.034	inactive: 0.008	inactive: -0.02	inactive: -0.01	inactive: 0.002	inactive: 0.001	inactive: 0.141	inactive: 0.013	inactive: 0.004	inactive: 0.016
OSBPL9 isoform 2 (UniProt Q96SU4)	inactive: -0.032	inactive: 0.022	inactive: -0.044	inactive: -0.023	inactive: -0.002	inactive: -0.041	inactive: 0.013	inactive: 0.068	inactive: 0.028	inactive: 0.054	inactive: 0.012	inactive: -0.078	inactive: 0.042	inactive: 0.023	inactive: -0.048
OTUD7B (UniProt Q6GQQ9)	inactive: -0.017	inactive: 0.017	inactive: 0.005	inactive: 0.03	inactive: 0.027	inactive: -0.252	inactive: 0.05	inactive: 0.142	inactive: 0.026	inactive: -0.095	inactive: 0.044	active: 0.331	inactive: -0.038	inactive: 0.194	inactive: -0.04
OSBPL8 (UniProt Q9BZF1)	inactive: 0.011	inactive: 0.035	inactive: -0.015	inactive: -0.031	inactive: 0.005	inactive: -0.009	inactive: -0.012	inactive: 0.008	inactive: -0.002	inactive: -0.045	inactive: -0.007	inactive: -0.108	inactive: 0.007	inactive: -0.028	inactive: -0.095
NUP43 (UniProt Q8NFH3)	inactive: 0.035	inactive: -0.014	inactive: 0.007	inactive: -0.018	inactive: -0.045	inactive: 0.012	inactive: -0.002	inactive: 0.037	inactive: -0.013	inactive: -0.012	inactive: 0.06	inactive: 0.093	inactive: -0.073	inactive: -0.008	inactive: -0.003
PAAF1 (UniProt Q9BRP4)	inactive: 0.017	inactive: 0.005	inactive: 0.028	inactive: -0.015	inactive: 0.012	inactive: 0.004	inactive: 0.011	inactive: -0.021	inactive: -0.013	inactive: 0.002	inactive: -0.021	inactive: 0.089	inactive: 0.034	inactive: 0.002	inactive: 0.019
PANK1 (UniProt Q8TE04)	inactive: -0.005	inactive: 0.014	inactive: -0.028	inactive: -0.05	inactive: 0.053	inactive: -0.039	inactive: 0.079	inactive: 0.062	inactive: -0.007	inactive: 0.062	inactive: 0.01	inactive: -0.084	inactive: 0.004	inactive: -0.039	inactive: 0.08
PABPC1 (UniProt P11940)	inactive: -0.007	inactive: -0.027	inactive: 0.006	inactive: 0.005	inactive: 0.058	inactive: 0.057	inactive: 0.039	inactive: -0.024	inactive: 0.006	inactive: 0.013	inactive: -0.012	inactive: 0.037	inactive: 0.001	inactive: -0.045	inactive: 0.01
NUP88 (UniProt Q99567)	inactive: -0.021	inactive: 0.032	inactive: -0.012	inactive: 0	inactive: -0.015	inactive: 0.002	inactive: -0.086	inactive: 0.034	inactive: 0.017	inactive: 0.02	inactive: 0.002	inactive: -0.084	inactive: -0.052	inactive: -0.007	inactive: -0.013
PARD6B (UniProt Q9BYG5)	inactive: 0.042	inactive: 0.11	inactive: 0.019	inactive: -0.011	inactive: 0.042	inactive: -0.03	inactive: -0.043	inactive: -0.001	inactive: 0.018	inactive: 0.035	inactive: 0.01	inactive: -0.05	inactive: 0.022	inactive: -0.026	inactive: -0.028
PAFAH2 (UniProt Q99487)	inactive: 0.017	inactive: -0.015	inactive: -0.003	inactive: 0.021	inactive: 0.019	inactive: 0.03	inactive: 0.029	inactive: 0.068	inactive: 0.239	inactive: -0.056	inactive: 0.066	inactive: 0.023	inactive: 0.005	inactive: -0.037	inactive: -0.006
NUP188 (UniProt Q5SRE5)	inactive: 0.025	inactive: -0.003	inactive: -0.074	inactive: -0.002	inactive: 0.055	inactive: -0.024	inactive: -0.047	inactive: 0.043	inactive: 0.03	inactive: 0.009	inactive: -0.002	active: -0.36	inactive: 0.073	inactive: -0.009	inactive: -0.003
OPLAH (UniProt O14841)	inactive: 0.016	inactive: -0.023	inactive: 0.027	inactive: 0.002	inactive: 0.063	inactive: 0.028	inactive: 0.014	inactive: 0.014	inactive: -0.004	inactive: 0.014	inactive: -0.035	inactive: -0.216	inactive: 0.014	inactive: -0.089	inactive: -0.023
OGFR (UniProt Q9NZT2)	inactive: -0.016	inactive: 0.021	inactive: -0.022	inactive: -0.005	inactive: 0.042	inactive: -0.004	inactive: 0.04	inactive: 0.02	inactive: -0.001	inactive: 0.028	inactive: -0.036	active: -0.285	inactive: 0.02	inactive: -0.018	inactive: -0.061
OXR1 (UniProt Q8N573)	inactive: 0.006	inactive: 0.03	inactive: 0.051	inactive: 0.027	inactive: 0.01	inactive: -0.051	inactive: -0.02	inactive: 0	inactive: -0.003	inactive: 0.013	inactive: -0.041	inactive: 0.024	inactive: -0.034	inactive: -0.02	inactive: -0.029
NUSAP1 (UniProt Q9BXS6)	inactive: -0.001	inactive: 0.004	inactive: 0.045	inactive: -0.009	inactive: -0.047	inactive: 0.038	inactive: -0.016	inactive: -0.024	inactive: 0.002	inactive: -0.055	inactive: 0.01	inactive: 0.101	inactive: -0.036	inactive: -0.003	inactive: -0.001
OSBPL6 isoform 5 (UniProt Q9BZF3)	inactive: 0.281	inactive: 0.018	inactive: -0.082	inactive: -0.045	inactive: 0.036	inactive: -0.07	inactive: -0.003	inactive: 0.122	inactive: 0.007	inactive: -0.238	inactive: -0.082	inactive: -0.195	inactive: 0.25	inactive: -0.026	inactive: 0.113
PAIP2 (UniProt Q9BPZ3)	inactive: 0.136	inactive: 0.062	inactive: -0.047	inactive: -0.009	inactive: -0.049	inactive: 0.007	inactive: -0.1	inactive: -0.087	inactive: -0.02	inactive: -0.018	inactive: 0.033	inactive: 0.054	inactive: -0.052	inactive: -0.025	inactive: -0.027
NUS1 (UniProt Q96E22)	inactive: -0.081	inactive: 0.052	inactive: 0.129	inactive: 0.032	inactive: -0.054	inactive: 0.067	inactive: -0.005	inactive: 0.065	inactive: 0.042	inactive: -0.001	inactive: 0.077	inactive: -0.118	inactive: -0.031	inactive: -0.048	inactive: 0.05
PACSIN2 (UniProt Q9UNF0)	inactive: -0.001	inactive: -0.009	inactive: 0.004	inactive: 0.001	inactive: 0.037	inactive: 0.028	inactive: 0.041	inactive: -0.001	inactive: -0.005	inactive: -0.005	inactive: 0	inactive: 0.013	inactive: 0.003	inactive: -0.005	inactive: 0.014
OTUB1 (UniProt Q96FW1)	inactive: 0.031	inactive: -0.006	inactive: 0.028	inactive: -0.006	inactive: 0.003	inactive: 0.001	inactive: -0.026	inactive: 0.002	inactive: -0.037	inactive: 0.01	inactive: -0.033	inactive: 0.014	inactive: -0.018	inactive: -0.015	inactive: -0.015

Laid out differently: entries from further up

| Target | log2 fold change (nilotinib) | log2 fold change [1] | log2 fold change (dasatinib) | log2 fold change [2] | log2 fold change [3] | log2 fold change (quisinostat) | log2 fold change (tipifarnib) | log2 fold change [4] | log2 fold change [5] | log2 fold change [6] | log2 fold change [7] | log2 fold change (vorinostat) | log2 fold change (silmitasertib) | log2 fold change [8] | log2 fold change (entospletinib) |
| --- | --- | --- | --- | --- | --- | --- | --- | --- | --- | --- | --- | --- | --- | --- | --- |
| PAICS (UniProt P22234) | inactive: -0.006 | inactive: -0.006 | inactive: 0.05 | inactive: -0.008 | inactive: -0.05 | inactive: 0.034 | inactive: 0.008 | inactive: -0.02 | inactive: -0.01 | inactive: 0.002 | inactive: 0.001 | inactive: 0.141 | inactive: 0.013 | inactive: 0.004 | inactive: 0.016 |
| PACSIN2 (UniProt Q9UNF0) | inactive: -0.001 | inactive: -0.009 | inactive: 0.004 | inactive: 0.001 | inactive: 0.037 | inactive: 0.028 | inactive: 0.041 | inactive: -0.001 | inactive: -0.005 | inactive: -0.005 | inactive: 0 | inactive: 0.013 | inactive: 0.003 | inactive: -0.005 | inactive: 0.014 |

From the supplement of paper PMC10849652
